Assay results reported in PubChem BioAssay AID819 (Columbia University Molecular Screening Center, 2007).
In all, about 94,000 compounds went through this assay and about 280 (0.3%) were called active. This list was built around the results that the source calls inconclusive (neither active nor inactive); the mix of calls is not that of the screen.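 How the source made its calls: active means activation above 40%, about the mean plus 3 SD, also judged a hit on visual image review; inconclusive means activation above 40% but not a hit on visual review; inactive means activation not above 40% and no visual hit.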

Assay: enhancers of NFkB p65 translocation in HUVEC – imaging, IL-1B stimulus, high-content imaging, primary screen (AID 819);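 further: percent activation is computed from the nuclear over cytoplasmic p65 intensity ratio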
Conditions: HUVEC IL-1B NFkB p65 nuclear translocation imaging; at 2 µM; stronger effect = higher value

Row | SMILES | activation
1 | COc1ccc(S(=O)(=O)Nc2cc(OC)c(NC(=O)c3ccco3)cc2OC)cc1 | active: 43.1%
2 | Cn1c(=O)c2c(ncn2CC(=O)OCc2ccccc2)n(C)c1=O | inactive: 12.4%
3 | CCOC(=O)C1=C(C)Nc2nnnn2C1c1ccc(OC)c(Br)c1 (stereo not given) | inconclusive: 58.8%
4 | Cc1cccc(-n2nc3c(c2NC(=O)c2ccco2)CSC3)c1C | inactive: -14.9%
5 | Cc1nc2ncnn2c(C)c1CCC(=O)NCCCN1CCN(c2cccc(Cl)c2)CC1 | inactive: -3.1%
6 | CCOC(=O)CSc1nnc(Cc2ccccc2)n1CC1CCCO1 (stereo not given) | active: 52.1%
7 | COc1ccc(C=O)cc1CSc1nnc(COc2cccc3cccnc23)o1 | inconclusive: 40.1%
8 | O=C(CSc1nnnn1-c1cccc2c1CCCC2)N1CCCC1 | inconclusive: 52.7%
9 | COc1cc2[nH]c(=O)n(CCCCCC(=O)NCCc3c[nH]c4ccccc34)c(=O)c2cc1OC | inactive: -0.25%
10 | CCOCCCn1c(=NC(C)=O)c(C(=O)OCC)cc2c(=O)n3ccccc3nc21 | inconclusive: 50%
11 | C=CCOC(=O)C1=C(C)OC(N)=C(C#N)C1c1c(C)nn(-c2ccccc2)c1Cl (stereo not given) | inactive: 12.9%
12 | COCCn1nnnc1CN1CCC(NC(=O)c2ccc(Br)cc2)CC1 | inconclusive: 43.7%
13 | O=C(NCN1C(=O)C2C3C=CC(C3)C2C1=O)OC1CCCCC1 (stereo not given) | inconclusive: 48.4%
14 | CC(C)C[C@H](NC(=O)OC(C)(C)C)C(=O)N1CCC(C(=O)N[C@@H](Cc2ccccc2)C(=O)O)CC1 | inconclusive: 65.4%
15 | CC(NC(=O)CSc1nc2ccccc2n1CCC#N)c1ccc(F)cc1 (stereo not given) | inactive: -2.1%
16 | O=C(Nc1nc(-c2cccs2)cs1)c1cccc(S(=O)(=O)N2CCCCC2)c1 | inactive: -11.1%
17 | COc1ccc(NCc2cc3cc(OC)ccc3[nH]c2=O)cc1 | inactive: -7.29%
18 | Cc1cc(C)c2[nH]c(=O)c(CN(CC3CCCO3)C(=O)C3CCCO3)cc2c1 (stereo not given) | inconclusive: 109%
19 | CCn1c(SCC(=O)c2ccc(NS(=O)(=O)c3ccccc3)cc2)nnc1-c1cccs1 | inconclusive: 42%
20 | O=c1c2c(n3cnnc3n1-c1ccccc1)-c1ccccc1CC21CCCCC1 | inconclusive: 85.3%
21 | CCN1CCN(CCCNC(=O)C2c3ccccc3C(=O)N(C)C2c2ccc(OC)cc2)CC1 (stereo not given) | inconclusive: 41.4%
22 | O=C(Cn1cnc2ccccc2c1=O)Nc1ccc2c(c1)CCC2 | inconclusive: 42.5%
23 | CN(CCc1ccccn1)C(=O)CN(C)S(=O)(=O)c1ccc2c(c1)c(=O)n(C)c(=O)n2C | active: 41.3%

Row | SMILES | activation
24 | CCOc1cc(N2CCOCC2)c(OCC)cc1NC(=O)CN1CCc2ccccc2C1 | inconclusive: 43%
25 | Cc1ccc(Cl)cc1NC1=C/C(=N\S(=O)(=O)c2cccs2)c2ccccc2C1=O | active: 41%
26 | O=C(c1cccc(F)c1)N1CCN(Cc2ccco2)CC1 | active: 40.5%
27 | C=CCN(CC=C)Cc1ccc(C(=O)OC)o1 | inconclusive: 52.7%
28 | COc1ccccc1C1CC(=O)NC(C)=C1C(=O)OCC1CCCO1 (stereo not given) | inconclusive: 41.8%
29 | COc1cccc(O[C@@H]2O[C@@H]3COC(C)(C)O[C@H]3[C@H](O)[C@H]2NC(C)=O)c1 | inactive: 7.46%
30 | O=C(Nc1ccccc1)N(CCc1nc2ccccc2[nH]1)C1CCCC1 | inactive: -6.55%
31 | Clc1ccc(-n2ncc3c(NCc4ccco4)ncnc32)cc1 | inconclusive: 47.3%
32 | CCC(=O)N1CCc2cc(S(=O)(=O)NCCC(=O)NC3CCCc4ccccc43)ccc21 (stereo not given) | inconclusive: 58.5%
33 | COCCn1c(SCC(=O)N(C(C)C)C(C)C)nnc1-c1cc2ccccc2cc1O | inconclusive: 52.1%
34 | COc1ccccc1NC(=O)c1sc(NC(=O)c2ccco2)c(C#N)c1C | inactive: 9.63%
35 | COc1cccc(-c2cc(C(F)(F)F)nc(N3CCOCC3)n2)c1 | inconclusive: 44.4%
36 | O=C(CSc1ccc(Cl)cc1)Nc1cccc(-c2nc3ncccc3o2)c1 | inconclusive: 82.5%
37 | O=C(NCCN1CCN(c2ccccc2F)CC1)C1CC(=O)N(C2CCCC2)C1 (stereo not given) | inconclusive: 44.6%
38 | CCOC(=O)c1ccc2[nH]c3c(c2c1)CCCCC3=O | active: 40.7%
39 | COc1cccc(C(=O)OCCN2CCCCC2)c1 | inactive: -20.8%
40 | N#Cc1nc(COc2ccccc2Cl)oc1N1CCCCCC1 | inconclusive: 40.7%
41 | O=C(CCCCCNS(=O)(=O)c1ccc(Br)cc1)NCCN1CCOCC1 | inconclusive: 61.1%
42 | CCOC(=O)c1c(C)nc2c(c(SC)nn2-c2ccccc2)c1N | inconclusive: 53.9%
43 | O=S(=O)(c1cccc(-c2nc3ccccc3s2)c1)N1CCOCC1 | inactive: -11.7%
44 | Cc1nnc(NC(=O)c2ccccc2F)s1 | inactive: 9.75%
45 | COc1ccc(N2CC(C(=O)Nc3cc(C)on3)CC2=O)cc1 (stereo not given) | inconclusive: 61.1%
46 | O=C(O)CCC(=O)N1CCN(c2ccc(C(=O)c3ccc(F)cc3)cc2)CC1 | inactive: 6.16%

Three structures from above, ordered by formula weight, high to low:
Row | SMILES | activation
33 | COCCn1c(SCC(=O)N(C(C)C)C(C)C)nnc1-c1cc2ccccc2cc1O | inconclusive: 52.1%
24 | CCOc1cc(N2CCOCC2)c(OCC)cc1NC(=O)CN1CCc2ccccc2C1 | inconclusive: 43%
28 | COc1ccccc1C1CC(=O)NC(C)=C1C(=O)OCC1CCCO1 (stereo not given) | inconclusive: 41.8%

Next entries follow.

Row | SMILES | activation
47 | O=C(CC1CCCCC1)c1c(O)c2ccccc2oc1=O | inconclusive: 43.2%
48 | CC(=O)OC(C(=O)NCCc1ccccc1)c1cccnc1 (stereo not given) | inconclusive: 41.7%
49 | CN1C(=O)CC(n2c(CO)nc3ccccc32)C1=O (stereo not given) | inconclusive: 44.2%
50 | COc1ccccc1CNC(=O)COC(=O)c1cc(-c2ccco2)nc2ccccc12 | inactive: 6.46%
51 | CCCCC(=O)Nc1cccc(NC(=O)c2ccccc2Br)c1 | inactive: 2.41%
52 | N/C(Cc1cccs1)=N\OC(=O)COc1ccc(Br)cc1 | active: 59.5%
53 | COc1ccc(C(=O)OCCN2CCOCC2)cc1 | inconclusive: 52.4%
54 | Cc1noc(C)c1S(=O)(=O)N(CCc1ccccc1)Cc1ccccc1 | inconclusive: 48%
55 | CCOC(=O)N1CCN(c2nc(C)c3c(n2)CC(C)CC3=O)CC1 (stereo not given) | active: 40.4%
56 | O=C(NC1CCCCC1)NC1CCN(CC(=O)N2CCOCC2)CC1 | inactive: -12.3%
57 | CCOC(=O)C1=C(C)OC(N)=C(C#N)C1c1ccc(OC)c(C)c1OC (stereo not given) | inactive: 21.8%
58 | CCOC(=O)c1cnc(-n2cc(C)cn2)nc1NCc1ccc2c(c1)OCO2 | inconclusive: 67.8%
59 | Cc1ccc(C(C(=O)NC(C)(C)C)N(C(=O)c2csnn2)c2cccc(F)c2)o1 (stereo not given) | inconclusive: 42.6%
60 | Cc1cc(C)cc(N(C(=O)C2CCCC2)C2C=CS(=O)(=O)C2)c1 (stereo not given) | inconclusive: 43.1%
61 | CCOC(=O)c1sc(N)c(C#N)c1CSc1nnc(C2CC2)n1N | inconclusive: 49.2%
62 | CCn1c(SCc2ccc(F)cc2)nnc1-c1nn(-c2ccccc2)ccc1=O | inactive: 7.01%
63 | c1csc(-c2csc3nc(CN4CCOCC4)nc(NCc4ccc5c(c4)OCO5)c23)c1 | inconclusive: 42.8%
64 | COC(=O)C1=C(COc2ccc(F)cc2)NC(=O)NC1c1ccc(C)cc1C (stereo not given) | inconclusive: 68%
65 | CCCCn1c(CCC(=O)O)ccc1-c1cccs1 | inconclusive: 55.5%
66 | CCOC(=O)c1c(NC(=O)CSc2nnc(-c3ccccc3)n2CC)sc(C(C)=O)c1C | inconclusive: 43.1%
67 | O=C1CSC(c2ccc(F)cc2)N1c1nnc(C23CC4CC(CC(C4)C2)C3)s1 (stereo not given) | inactive: -8.39%
68 | Cc1ccc(-n2nnnc2SCC(=O)Nc2nc(-c3ccc(F)cc3)cs2)cc1C | inactive: 7.4%
69 | CCOC(=O)C1(C)/C(=N/Nc2ccccc2Cl)C(=O)C(=O)N1c1ccccc1 (stereo not given) | inactive: 0.45%

Row | SMILES | activation
70 | CCCC(=O)Nc1cc(C)c(NC(=O)c2ccccn2)cn1 | inconclusive: 40.4%
71 | CC(=O)c1cccc(NC(=O)NCc2cccs2)c1 | active: 46.1%
72 | CCCCNS(=O)(=O)c1ccc(NC(=O)c2c(-c3ccccc3Cl)noc2C)cc1 | inactive: 7.26%
73 | COc1ccccc1N1CCN(CC(=O)Nc2ccc(CN3CCCCC3)cc2)CC1 | inconclusive: 40.3%
74 | CCn1c(=O)c(=O)[nH]c2cc(C(=O)Nc3ccc(S(=O)(=O)N4CCCC4)cc3)ccc21 | inconclusive: 51.4%
75 | CCCCNC(=O)N(O)C1N(CCCC)C(=O)N(CC(=O)OC)C1(C)C (stereo not given) | inactive: -11%
76 | CCCn1c(SCC(=O)N2c3ccc(F)cc3CCC2C)nnc1-c1ccccn1 (stereo not given) | inconclusive: 46%
77 | CC(C)c1ccc(C(=O)CC2(O)C(=O)N(CN3CCOCC3)c3ccccc32)cc1 (stereo not given) | inactive: 9.89%
78 | CCc1nnc(NC(=O)CCC(=O)N2CCN(CCOc3ccc(C)cc3)CC2)s1 | inconclusive: 47.4%
79 | CCc1ccc(Nc2ncccc2C#N)cc1 | active: 84.5%
80 | O=C(CCn1c(=O)[nH]c2ccccc2c1=O)N1CCN(c2ccc(Cl)cc2)CC1 | inactive: 9.55%
81 | CCC(C)(C(=O)NC1CCCCC1)N(C)C(=O)c1ccccn1 (stereo not given) | inactive: 7.87%
82 | Cc1ccc(CCN2CC(C(=O)NCCCN3CCOCC3)CC2=O)cc1 (stereo not given) | inconclusive: 51.2%
83 | CC(NCc1ccccc1)C1COc2ccccc2O1 (stereo not given) | active: 49.1%
84 | Cc1ccc(CN2CCN(C(=O)C3CCCO3)CC2)cc1 (stereo not given) | inactive: -1.68%
85 | COCCn1nnnc1C(C(C)C)N(Cc1cccnc1)Cc1cc2cc(OC)ccc2[nH]c1=O (stereo not given) | inconclusive: 57.4%
86 | CCOc1ccc(-c2nnc(SCc3nnc(-c4ccccc4)o3)n2-c2ccccc2F)cc1 | inconclusive: 44.5%
87 | N#CCSc1nnc(COc2cccc3ccccc23)n1-c1ccccc1 | inactive: -0.25%
88 | COc1ccc(CCNC(=O)CN(C)S(=O)(=O)c2cccs2)cc1OC | inconclusive: 40.6%
89 | COC(=O)c1cc(=O)nc2sc3cc(OC)ccc3n12 | inconclusive: 47.8%
90 | CCOC(=O)c1cnc2cc(Cl)c(OC)cc2c1NCC1CCCO1 (stereo not given) | inactive: -9.33%
